The list shows a part of the results.
How the values were obtained:
Assay in all cases: glycan array binding signal (z-score within array); higher = stronger binding
Settings in all cases: glycan notation: IUPAC condensed, linker removed
[1] = molecular target: Fuc(a1-2)Gal6S(b1-3)GlcNAc6S
Summary of the method: (§1)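 Glycan array data came from 3228 arrays in the Consortium for Functional Glycomics database, and only arrays with an available protein sequence were kept. Glycan names were put into IUPAC-condensed notation, and columns mapping to the same glycan were averaged. The binding signal is a within-array Z-score, averaged across arrays of one protein sequence run at different concentrations or buffers and across linkers. A negative Z-score can be read as non-binding.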

[2] = molecular target: Fuc(a1-2)Gal6S(b1-4)Glc
Summary of the method: as §1

[3] = molecular target: Fuc(a1-2)Gal6S(b1-4)Glc6S
Summary of the method: as §1

[4] = molecular target: Fuc(a1-2)[Gal(a1-3)]Gal
Summary of the method: as §1

[5] = molecular target: Fuc(a1-2)[Gal(a1-3)]Gal(b1-3)GalNAc
Summary of the method: as §1

[6] = molecular target: Fuc(a1-2)[Gal(a1-3)]Gal(b1-3)GalNAc(b1-3)Gal(a1-4)Gal(b1-4)Glc
Summary of the method: as §1

[7] = molecular target: Fuc(a1-2)[Gal(a1-3)]Gal(b1-3)GlcNAc
Summary of the method: as §1

[8] = molecular target: Fuc(a1-2)[Gal(a1-3)]Gal(b1-3)GlcNAc(b1-2)Man(a1-3)[Fuc(a1-2)[Gal(a1-3)]Gal(b1-3)GlcNAc(b1-2)Man(a1-6)]Man(b1-4)GlcNAc(b1-4)GlcNAc
Summary of the method: as §1

[9] = molecular target: Fuc(a1-2)[Gal(a1-3)]Gal(b1-3)GlcNAc(b1-2)Man(a1-3)[Fuc(a1-2)[Gal(a1-3)]Gal(b1-3)GlcNAc(b1-2)Man(a1-6)]Man(b1-4)GlcNAc(b1-4)[Fuc(a1-6)]GlcNAc
Summary of the method: as §1

[10] = molecular target: Fuc(a1-2)[Gal(a1-3)]Gal(b1-3)GlcNAc(b1-3)GalNAc
Summary of the method: as §1

[11] = molecular target: Fuc(a1-2)[Gal(a1-3)]Gal(b1-3)GlcNAc(b1-6)GalNAc
Summary of the method: as §1

[12] = molecular target: Fuc(a1-2)[Gal(a1-3)]Gal(b1-4)Glc
Summary of the method: as §1

[13] = molecular target: Fuc(a1-2)[Gal(a1-3)]Gal(b1-4)GlcNAc
Summary of the method: as §1

[14] = molecular target: Fuc(a1-2)[Gal(a1-3)]Gal(b1-4)GlcNAc(b1-2)Man
Summary of the method: as §1

[15] = molecular target: Fuc(a1-2)[Gal(a1-3)]Gal(b1-4)GlcNAc(b1-2)Man(a1-3)[Fuc(a1-2)[Gal(a1-3)]Gal(b1-4)GlcNAc(b1-2)Man(a1-6)]Man(b1-4)GlcNAc(b1-4)GlcNAc
Summary of the method: as §1

[16] = molecular target: Fuc(a1-2)[Gal(a1-3)]Gal(b1-4)GlcNAc(b1-2)Man(a1-3)[Fuc(a1-2)[Gal(a1-3)]Gal(b1-4)GlcNAc(b1-2)Man(a1-6)]Man(b1-4)GlcNAc(b1-4)[Fuc(a1-6)]GlcNAc
Summary of the method: as §1

[17] = molecular target: Fuc(a1-2)[Gal(a1-3)]Gal(b1-4)GlcNAc(b1-3)GalNAc
Summary of the method: as §1

[18] = molecular target: Fuc(a1-2)[Gal(a1-3)]Gal(b1-4)GlcNAc(b1-3)[Fuc(a1-2)[Gal(a1-3)]Gal(b1-4)GlcNAc(b1-6)]GalNAc
Summary of the method: as §1

[19] = molecular target: Fuc(a1-2)[Gal(a1-3)]Gal(b1-4)GlcNAc(b1-6)GalNAc
Summary of the method: as §1

[20] = molecular target: Fuc(a1-2)[Gal(a1-3)]Gal(b1-4)[Fuc(a1-3)]Glc
Summary of the method: as §1

[21] = molecular target: Fuc(a1-2)[Gal(a1-3)]Gal(b1-4)[Fuc(a1-3)]GlcNAc
Summary of the method: as §1

[22] = molecular target: Fuc(a1-2)[Gal(a1-3)]Gal(b1-4)[Fuc(a1-3)]GlcNAc(b1-3)GalNAc
Summary of the method: as §1

[23] = molecular target: Fuc(a1-2)[Gal(a1-4)]Gal(b1-4)GlcNAc
Summary of the method: as §1

[24] = molecular target: Fuc(a1-2)[GalNAc(a1-3)]Gal
Summary of the method: as §1

[25] = molecular target: Fuc(a1-2)[GalNAc(a1-3)]Gal(b1-3)GalNAc(a1-3)[Fuc(a1-2)]Gal(b1-4)GlcNAc
Summary of the method: as §1

[26] = molecular target: Fuc(a1-2)[GalNAc(a1-3)]Gal(b1-3)GalNAc(b1-3)Gal(a1-4)Gal(b1-4)Glc
Summary of the method: as §1

[27] = molecular target: Fuc(a1-2)[GalNAc(a1-3)]Gal(b1-3)GlcNAc
Summary of the method: as §1

[28] = molecular target: Fuc(a1-2)[GalNAc(a1-3)]Gal(b1-3)GlcNAc(b1-2)Man(a1-3)[Fuc(a1-2)[GalNAc(a1-3)]Gal(b1-3)GlcNAc(b1-2)Man(a1-6)]Man(b1-4)GlcNAc(b1-4)GlcNAc
Summary of the method: as §1

[29] = molecular target: Fuc(a1-2)[GalNAc(a1-3)]Gal(b1-3)GlcNAc(b1-2)Man(a1-3)[Fuc(a1-2)[GalNAc(a1-3)]Gal(b1-3)GlcNAc(b1-2)Man(a1-6)]Man(b1-4)GlcNAc(b1-4)[Fuc(a1-6)]GlcNAc
Summary of the method: as §1

[30] = molecular target: Fuc(a1-2)[GalNAc(a1-3)]Gal(b1-3)GlcNAc(b1-3)GalNAc
Summary of the method: as §1

[31] = molecular target: Fuc(a1-2)[GalNAc(a1-3)]Gal(b1-3)GlcNAc(b1-6)GalNAc
Summary of the method: as §1

[32] = molecular target: Fuc(a1-2)[GalNAc(a1-3)]Gal(b1-4)Glc
Summary of the method: as §1

[33] = molecular target: Fuc(a1-2)[GalNAc(a1-3)]Gal(b1-4)GlcNAc
Summary of the method: as §1

[34] = molecular target: Fuc(a1-2)[GalNAc(a1-3)]Gal(b1-4)GlcNAc(b1-2)Man
Summary of the method: as §1

[35] = molecular target: Fuc(a1-2)[GalNAc(a1-3)]Gal(b1-4)GlcNAc(b1-2)Man(a1-3)[Fuc(a1-2)[GalNAc(a1-3)]Gal(b1-4)GlcNAc(b1-2)Man(a1-6)]Man(b1-4)GlcNAc(b1-4)GlcNAc
Summary of the method: as §1

[36] = molecular target: Fuc(a1-2)[GalNAc(a1-3)]Gal(b1-4)GlcNAc(b1-2)Man(a1-3)[Fuc(a1-2)[GalNAc(a1-3)]Gal(b1-4)GlcNAc(b1-2)Man(a1-6)]Man(b1-4)GlcNAc(b1-4)[Fuc(a1-6)]GlcNAc
Summary of the method: as §1

[37] = molecular target: Fuc(a1-2)[GalNAc(a1-3)]Gal(b1-4)GlcNAc(b1-3)Gal(b1-4)GlcNAc
Summary of the method: as §1

[38] = molecular target: Fuc(a1-2)[GalNAc(a1-3)]Gal(b1-4)GlcNAc(b1-3)Gal(b1-4)GlcNAc(b1-3)Gal(b1-4)GlcNAc
Summary of the method: as §1

[39] = molecular target: Fuc(a1-2)[GalNAc(a1-3)]Gal(b1-4)GlcNAc(b1-3)GalNAc
Summary of the method: as §1

[40] = molecular target: Fuc(a1-2)[GalNAc(a1-3)]Gal(b1-4)GlcNAc(b1-3)[Fuc(a1-2)[GalNAc(a1-3)]Gal(b1-4)GlcNAc(b1-6)]GalNAc
Summary of the method: as §1

[41] = molecular target: Fuc(a1-2)[GalNAc(a1-3)]Gal(b1-4)GlcNAc(b1-6)GalNAc
Summary of the method: as §1

[42] = molecular target: Fuc(a1-2)[GalNAc(a1-3)]Gal(b1-4)[Fuc(a1-3)]GlcNAc
Summary of the method: as §1

[43] = molecular target: Fuc(a1-2)[GalNAc(a1-3)]Gal(b1-4)[Fuc(a1-3)]GlcNAc(b1-3)GalNAc
Summary of the method: as §1

[44] = molecular target: Fuc(a1-2)[GalNAc(a1-4)]Gal(b1-4)GlcNAc
Summary of the method: as §1

[45] = molecular target: Fuc(a1-2)[GalNAc(b1-3)]Gal
Summary of the method: as §1

B1: MXA PilAct-eGFP (Myxococcus xanthus), Q59589 (protein)
chain: MRVSRFNPRNRGFTLIELMIVVAIIGILAAIAIPNFIKFQARSKQSEAKTNLKALYTAQKSFFSEKDRYSDFANEIGFAPERGNRYGYRVSAAAGDCEVRNAADLPVPAAGVPCISNDSFRFGANSAIDDPTPVVARFVPQGAAGWNTTLGVQPTIADCPNCNFFAGARGNADNEATFDDWVIAGFEGSGQVGPCSEAGNVASGTPYNTRNDVACDGAAQ
[1]
  glycan array binding signal (z-score): 1.32
[2]
  glycan array binding signal (z-score): -0.651
[3]
  glycan array binding signal (z-score): -0.24
[4]
  glycan array binding signal (z-score): 0.325
[5]
  glycan array binding signal (z-score): 0.663
[6]
  glycan array binding signal (z-score): -1.12
[7]
  glycan array binding signal (z-score): 0.255
[8]
  glycan array binding signal (z-score): 0.25
[9]
  glycan array binding signal (z-score): -0.622
[10]
  glycan array binding signal (z-score): 0.837
[11]
  glycan array binding signal (z-score): 0.16
[12]
  glycan array binding signal (z-score): -1.07
[13]
  glycan array binding signal (z-score): 0.335
[14]
  glycan array binding signal (z-score): -0.112
[15]
  glycan array binding signal (z-score): -0.026
[16]
  glycan array binding signal (z-score): 1.29
[17]
  glycan array binding signal (z-score): 0.793
[18]
  glycan array binding signal (z-score): -0.204
[19]
  glycan array binding signal (z-score): -0.135
[20]
  glycan array binding signal (z-score): -0.722
[21]
  glycan array binding signal (z-score): 0.578
[22]
  glycan array binding signal (z-score): 0.458
[23]
  glycan array binding signal (z-score): -0.628
[24]
  glycan array binding signal (z-score): -0.675
[25]
  glycan array binding signal (z-score): 0.464
[26]
  glycan array binding signal (z-score): 2.1
[27]
  glycan array binding signal (z-score): -0.53
[28]
  glycan array binding signal (z-score): -0.758
[29]
  glycan array binding signal (z-score): -0.984
[30]
  glycan array binding signal (z-score): -1.7
[31]
  glycan array binding signal (z-score): -0.703
[32]
  glycan array binding signal (z-score): -0.648
[33]
  glycan array binding signal (z-score): 0.218
[34]
  glycan array binding signal (z-score): -1.06
[35]
  glycan array binding signal (z-score): 3.39
[36]
  glycan array binding signal (z-score): 0.22
[37]
  glycan array binding signal (z-score): -0.546
[38]
  glycan array binding signal (z-score): -0.12
[39]
  glycan array binding signal (z-score): 0.716
[40]
  glycan array binding signal (z-score): 0.574
[41]
  glycan array binding signal (z-score): 0.269
[42]
  glycan array binding signal (z-score): -1.19
[43]
  glycan array binding signal (z-score): -0.577
[44]
  glycan array binding signal (z-score): 0.023
[45]
  glycan array binding signal (z-score): -0.376

Source: the supplement of paper PMC8728848
